For assay [1], the target named is LRRC4B expressed on cells (human) (UniProt Q9NT99). Nature of the assay: co-immunoprecipitation, LRRC4B-FLAG with BTN3A3-HA co-expressed in cells (FIG. 5I).
The target of assay [2] is BTN3A1 full-length (co-IP) (human) (UniProt O00481). Nature of the assay: co-immunoprecipitation from co-transfected cells, IP anti-FLAG, western blot anti-HA.
A further assay concerns the target T1, CD300A-HA (human) (UniProt Q9UGN4).
T1 sequence (co-expressed protein, looked up): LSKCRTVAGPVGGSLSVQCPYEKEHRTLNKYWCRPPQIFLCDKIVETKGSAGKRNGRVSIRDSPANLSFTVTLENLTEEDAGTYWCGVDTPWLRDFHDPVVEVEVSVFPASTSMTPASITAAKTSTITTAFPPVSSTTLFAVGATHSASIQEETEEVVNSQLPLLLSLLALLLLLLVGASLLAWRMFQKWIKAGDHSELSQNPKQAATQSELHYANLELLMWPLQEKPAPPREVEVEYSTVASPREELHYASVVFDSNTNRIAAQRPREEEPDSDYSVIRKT
The description is as above.

Protein sequences, listed by entry. Tags and fused reporters are not part of them. Residues count along the entry.
UniProt Q9NT99, residues 36-713: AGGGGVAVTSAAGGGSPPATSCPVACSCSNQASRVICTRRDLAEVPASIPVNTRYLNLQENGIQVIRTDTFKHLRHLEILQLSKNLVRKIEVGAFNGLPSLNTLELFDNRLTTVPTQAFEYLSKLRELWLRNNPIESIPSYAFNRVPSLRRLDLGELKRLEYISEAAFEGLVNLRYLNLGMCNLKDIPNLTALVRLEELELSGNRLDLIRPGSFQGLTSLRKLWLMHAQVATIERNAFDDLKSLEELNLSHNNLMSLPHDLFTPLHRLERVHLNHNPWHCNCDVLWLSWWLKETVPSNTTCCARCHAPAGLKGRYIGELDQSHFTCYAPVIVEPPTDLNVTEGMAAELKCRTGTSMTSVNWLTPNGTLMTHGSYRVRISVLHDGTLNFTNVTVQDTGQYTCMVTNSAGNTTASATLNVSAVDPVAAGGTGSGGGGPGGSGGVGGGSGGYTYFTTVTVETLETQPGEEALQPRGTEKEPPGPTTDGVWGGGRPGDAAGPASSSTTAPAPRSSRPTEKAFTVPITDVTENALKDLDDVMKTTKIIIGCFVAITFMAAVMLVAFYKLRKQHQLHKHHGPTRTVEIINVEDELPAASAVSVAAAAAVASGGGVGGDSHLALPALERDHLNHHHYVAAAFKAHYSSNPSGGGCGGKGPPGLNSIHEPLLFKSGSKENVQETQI
UniProt O00481, residues 30-513: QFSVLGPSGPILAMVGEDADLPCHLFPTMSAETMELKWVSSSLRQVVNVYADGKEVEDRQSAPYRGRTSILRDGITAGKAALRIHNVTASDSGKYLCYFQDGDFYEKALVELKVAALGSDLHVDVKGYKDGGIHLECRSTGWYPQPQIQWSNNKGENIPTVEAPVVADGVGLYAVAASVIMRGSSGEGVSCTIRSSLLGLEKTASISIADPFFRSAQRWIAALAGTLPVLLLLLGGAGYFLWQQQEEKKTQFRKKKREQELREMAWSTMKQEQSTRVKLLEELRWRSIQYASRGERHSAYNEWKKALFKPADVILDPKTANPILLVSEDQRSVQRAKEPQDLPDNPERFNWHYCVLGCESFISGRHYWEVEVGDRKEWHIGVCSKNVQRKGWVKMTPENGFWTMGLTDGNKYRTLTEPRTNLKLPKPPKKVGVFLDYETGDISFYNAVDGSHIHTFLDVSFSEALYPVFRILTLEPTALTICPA
UniProt P30530, residues 26-894: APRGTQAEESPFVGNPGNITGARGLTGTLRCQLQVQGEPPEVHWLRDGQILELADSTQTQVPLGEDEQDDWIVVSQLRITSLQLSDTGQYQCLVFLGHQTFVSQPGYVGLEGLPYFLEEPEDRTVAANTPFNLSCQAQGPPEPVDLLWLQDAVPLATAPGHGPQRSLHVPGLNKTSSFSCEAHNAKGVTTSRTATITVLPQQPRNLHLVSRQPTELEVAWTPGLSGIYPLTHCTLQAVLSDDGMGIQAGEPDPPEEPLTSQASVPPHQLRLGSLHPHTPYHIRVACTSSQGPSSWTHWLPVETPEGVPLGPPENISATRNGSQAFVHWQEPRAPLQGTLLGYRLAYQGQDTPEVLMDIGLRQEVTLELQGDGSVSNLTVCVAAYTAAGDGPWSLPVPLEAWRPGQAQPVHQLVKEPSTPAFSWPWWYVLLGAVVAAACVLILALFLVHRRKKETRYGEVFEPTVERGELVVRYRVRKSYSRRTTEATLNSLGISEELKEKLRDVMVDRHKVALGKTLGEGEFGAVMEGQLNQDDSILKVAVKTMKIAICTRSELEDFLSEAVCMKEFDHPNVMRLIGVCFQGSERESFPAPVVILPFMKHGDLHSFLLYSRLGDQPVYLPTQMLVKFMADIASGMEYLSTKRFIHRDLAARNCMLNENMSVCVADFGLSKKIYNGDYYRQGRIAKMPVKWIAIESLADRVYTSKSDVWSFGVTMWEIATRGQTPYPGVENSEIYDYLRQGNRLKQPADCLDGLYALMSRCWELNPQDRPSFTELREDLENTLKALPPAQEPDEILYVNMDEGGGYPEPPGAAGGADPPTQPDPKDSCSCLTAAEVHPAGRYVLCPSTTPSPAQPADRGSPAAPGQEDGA
UniProt Q8NHL6, residues 24-650: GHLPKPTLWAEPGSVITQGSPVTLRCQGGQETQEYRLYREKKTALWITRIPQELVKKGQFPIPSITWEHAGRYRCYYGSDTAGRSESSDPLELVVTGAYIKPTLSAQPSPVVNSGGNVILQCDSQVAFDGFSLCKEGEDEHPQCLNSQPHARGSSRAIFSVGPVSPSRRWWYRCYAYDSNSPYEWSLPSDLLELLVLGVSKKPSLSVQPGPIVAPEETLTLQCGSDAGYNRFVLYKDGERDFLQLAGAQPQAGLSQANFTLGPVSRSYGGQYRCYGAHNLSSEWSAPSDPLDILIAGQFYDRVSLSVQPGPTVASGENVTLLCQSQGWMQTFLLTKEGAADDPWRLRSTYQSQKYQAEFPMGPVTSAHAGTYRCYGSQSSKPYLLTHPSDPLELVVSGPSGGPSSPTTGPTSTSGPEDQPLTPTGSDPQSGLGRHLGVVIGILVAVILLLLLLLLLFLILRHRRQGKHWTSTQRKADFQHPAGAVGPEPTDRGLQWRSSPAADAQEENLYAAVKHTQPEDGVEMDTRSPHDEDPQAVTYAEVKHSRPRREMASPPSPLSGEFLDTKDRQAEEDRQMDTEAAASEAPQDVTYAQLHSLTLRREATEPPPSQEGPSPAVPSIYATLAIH
UniProt O00478, residues 30-584: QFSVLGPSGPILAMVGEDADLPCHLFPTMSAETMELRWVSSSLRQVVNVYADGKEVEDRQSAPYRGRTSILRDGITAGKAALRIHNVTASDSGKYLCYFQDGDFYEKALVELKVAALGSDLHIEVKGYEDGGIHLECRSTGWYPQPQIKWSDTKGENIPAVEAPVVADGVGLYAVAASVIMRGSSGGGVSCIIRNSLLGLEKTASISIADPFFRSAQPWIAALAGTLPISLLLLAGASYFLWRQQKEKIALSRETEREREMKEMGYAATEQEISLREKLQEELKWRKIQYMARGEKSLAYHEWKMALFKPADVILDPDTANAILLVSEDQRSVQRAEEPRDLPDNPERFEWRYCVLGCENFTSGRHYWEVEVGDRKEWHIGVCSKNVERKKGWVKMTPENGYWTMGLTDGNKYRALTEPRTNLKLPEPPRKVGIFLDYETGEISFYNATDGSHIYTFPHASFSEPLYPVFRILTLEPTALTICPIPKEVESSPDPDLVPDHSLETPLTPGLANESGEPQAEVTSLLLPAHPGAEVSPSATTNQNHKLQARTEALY
UniProt O43493, residues 22-437: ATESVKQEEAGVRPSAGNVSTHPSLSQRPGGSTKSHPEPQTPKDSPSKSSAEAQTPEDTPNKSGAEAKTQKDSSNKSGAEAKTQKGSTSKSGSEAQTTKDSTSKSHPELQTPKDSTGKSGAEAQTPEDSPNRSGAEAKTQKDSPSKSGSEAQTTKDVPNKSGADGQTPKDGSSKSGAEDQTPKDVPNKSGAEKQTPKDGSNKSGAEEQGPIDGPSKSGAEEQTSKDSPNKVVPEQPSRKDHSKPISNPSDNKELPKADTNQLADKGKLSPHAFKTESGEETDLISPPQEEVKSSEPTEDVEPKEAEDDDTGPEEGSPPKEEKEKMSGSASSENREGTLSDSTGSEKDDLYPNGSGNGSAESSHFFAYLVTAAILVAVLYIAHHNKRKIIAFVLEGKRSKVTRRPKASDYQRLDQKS
UniProt P78410, residues 30-334: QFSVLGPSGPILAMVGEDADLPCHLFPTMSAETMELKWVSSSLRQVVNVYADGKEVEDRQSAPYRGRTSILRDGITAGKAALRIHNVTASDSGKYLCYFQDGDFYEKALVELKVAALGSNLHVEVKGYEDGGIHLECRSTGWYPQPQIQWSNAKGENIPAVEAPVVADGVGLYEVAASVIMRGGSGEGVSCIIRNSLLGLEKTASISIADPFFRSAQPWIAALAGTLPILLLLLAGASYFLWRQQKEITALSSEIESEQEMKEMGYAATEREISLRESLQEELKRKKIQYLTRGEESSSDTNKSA
UniProt Q8NHJ6, residues 22-448: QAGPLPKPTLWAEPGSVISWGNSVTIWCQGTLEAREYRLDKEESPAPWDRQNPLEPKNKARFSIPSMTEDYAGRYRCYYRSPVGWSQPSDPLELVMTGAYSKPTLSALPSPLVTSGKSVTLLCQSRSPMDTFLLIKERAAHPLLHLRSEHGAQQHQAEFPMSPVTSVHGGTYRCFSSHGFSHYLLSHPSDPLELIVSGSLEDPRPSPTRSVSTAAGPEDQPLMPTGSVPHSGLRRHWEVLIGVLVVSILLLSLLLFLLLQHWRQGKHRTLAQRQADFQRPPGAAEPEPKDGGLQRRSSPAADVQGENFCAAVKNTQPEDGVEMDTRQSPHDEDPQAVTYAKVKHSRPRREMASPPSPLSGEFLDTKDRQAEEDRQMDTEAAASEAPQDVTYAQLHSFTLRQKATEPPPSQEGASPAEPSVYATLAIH
UniProt Q9Y5Y6: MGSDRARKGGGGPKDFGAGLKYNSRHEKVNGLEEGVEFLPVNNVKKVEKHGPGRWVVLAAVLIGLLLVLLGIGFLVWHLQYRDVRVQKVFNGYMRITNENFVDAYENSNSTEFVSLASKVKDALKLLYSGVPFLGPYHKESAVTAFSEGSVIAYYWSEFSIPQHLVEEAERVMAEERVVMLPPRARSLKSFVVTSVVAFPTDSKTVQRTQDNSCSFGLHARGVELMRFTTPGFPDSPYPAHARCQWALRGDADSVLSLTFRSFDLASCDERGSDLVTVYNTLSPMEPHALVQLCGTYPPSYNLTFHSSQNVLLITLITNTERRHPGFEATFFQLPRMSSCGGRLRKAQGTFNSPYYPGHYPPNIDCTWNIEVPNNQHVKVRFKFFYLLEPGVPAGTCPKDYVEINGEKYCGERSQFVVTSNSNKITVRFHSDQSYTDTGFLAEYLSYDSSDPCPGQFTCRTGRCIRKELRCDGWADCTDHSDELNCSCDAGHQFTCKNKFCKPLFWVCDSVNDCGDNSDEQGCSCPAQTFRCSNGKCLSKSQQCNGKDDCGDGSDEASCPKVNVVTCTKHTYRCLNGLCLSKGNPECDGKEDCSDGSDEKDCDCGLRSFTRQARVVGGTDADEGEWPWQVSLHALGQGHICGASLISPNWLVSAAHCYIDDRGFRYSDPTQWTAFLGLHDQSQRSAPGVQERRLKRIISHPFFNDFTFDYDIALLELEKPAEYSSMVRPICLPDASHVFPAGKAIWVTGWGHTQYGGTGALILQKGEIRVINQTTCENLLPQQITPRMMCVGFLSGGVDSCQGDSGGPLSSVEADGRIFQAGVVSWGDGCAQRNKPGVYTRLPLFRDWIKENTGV
UniProt Q92823, residues 25-1167: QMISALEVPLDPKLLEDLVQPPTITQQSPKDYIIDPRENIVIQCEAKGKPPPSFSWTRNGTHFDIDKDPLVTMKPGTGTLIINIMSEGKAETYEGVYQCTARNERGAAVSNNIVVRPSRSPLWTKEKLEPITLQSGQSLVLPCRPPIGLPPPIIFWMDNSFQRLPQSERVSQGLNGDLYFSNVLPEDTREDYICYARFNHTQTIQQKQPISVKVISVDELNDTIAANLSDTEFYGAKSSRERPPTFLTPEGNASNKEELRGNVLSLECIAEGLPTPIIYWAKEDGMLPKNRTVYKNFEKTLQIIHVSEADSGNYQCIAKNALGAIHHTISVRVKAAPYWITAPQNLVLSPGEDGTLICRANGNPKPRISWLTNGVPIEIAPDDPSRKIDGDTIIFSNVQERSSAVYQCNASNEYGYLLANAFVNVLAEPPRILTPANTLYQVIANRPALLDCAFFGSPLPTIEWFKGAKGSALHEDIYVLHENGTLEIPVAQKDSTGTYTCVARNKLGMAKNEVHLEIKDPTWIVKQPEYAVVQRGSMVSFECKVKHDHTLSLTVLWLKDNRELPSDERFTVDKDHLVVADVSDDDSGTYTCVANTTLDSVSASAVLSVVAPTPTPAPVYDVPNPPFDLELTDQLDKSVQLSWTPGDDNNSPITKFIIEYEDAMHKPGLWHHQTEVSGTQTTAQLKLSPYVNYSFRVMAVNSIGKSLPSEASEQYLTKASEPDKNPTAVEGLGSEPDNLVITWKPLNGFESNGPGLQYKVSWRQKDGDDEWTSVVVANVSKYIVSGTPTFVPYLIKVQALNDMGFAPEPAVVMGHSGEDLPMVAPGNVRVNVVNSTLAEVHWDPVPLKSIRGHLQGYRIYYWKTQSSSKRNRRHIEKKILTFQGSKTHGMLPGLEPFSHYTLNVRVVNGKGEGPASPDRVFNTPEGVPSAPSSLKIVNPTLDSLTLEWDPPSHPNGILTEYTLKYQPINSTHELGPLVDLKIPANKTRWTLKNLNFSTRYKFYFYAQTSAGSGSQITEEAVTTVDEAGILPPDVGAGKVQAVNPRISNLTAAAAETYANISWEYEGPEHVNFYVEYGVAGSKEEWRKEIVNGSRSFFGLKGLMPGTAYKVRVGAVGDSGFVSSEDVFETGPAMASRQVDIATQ

A further assay has as its target T2, CD300LF-HA (human) (UniProt Q8TDQ1).
T2 sequence (co-expressed protein, looked up): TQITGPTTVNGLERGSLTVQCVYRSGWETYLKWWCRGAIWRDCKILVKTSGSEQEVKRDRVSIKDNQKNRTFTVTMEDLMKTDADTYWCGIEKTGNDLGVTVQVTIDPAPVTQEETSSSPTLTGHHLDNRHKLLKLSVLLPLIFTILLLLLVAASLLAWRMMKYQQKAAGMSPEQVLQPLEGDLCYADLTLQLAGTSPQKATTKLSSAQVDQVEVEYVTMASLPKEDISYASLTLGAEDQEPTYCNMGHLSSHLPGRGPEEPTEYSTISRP
The description is as above.

The target of assay [3] is LRRC4B expressed on cells (human) (UniProt Q9NT99). Nature of the assay: co-immunoprecipitation, LRRC4B-FLAG with BTN3A2-HA co-expressed in cells.
Assay [4] concerns the target AXL full-length (co-IP) (human) (UniProt P30530). Nature of the assay: co-immunoprecipitation from co-transfected cells, IP anti-FLAG, western blot.
Assay [5] deals with T3, CNTFR expressed on cells (human) (UniProt P26992).
T3 sequence (looked up): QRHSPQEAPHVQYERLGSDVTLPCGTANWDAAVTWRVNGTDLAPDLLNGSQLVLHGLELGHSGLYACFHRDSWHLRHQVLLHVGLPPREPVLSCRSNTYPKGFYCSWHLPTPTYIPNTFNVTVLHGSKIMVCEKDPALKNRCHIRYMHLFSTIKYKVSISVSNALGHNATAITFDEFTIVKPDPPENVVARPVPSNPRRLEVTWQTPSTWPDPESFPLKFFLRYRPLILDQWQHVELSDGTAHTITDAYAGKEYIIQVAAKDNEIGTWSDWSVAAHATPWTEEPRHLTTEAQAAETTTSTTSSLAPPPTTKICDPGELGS
The description is as above.

Assay [6] concerns the target T4, EDAR expressed on cells (human) (UniProt Q9UNE0).
T4 sequence (looked up): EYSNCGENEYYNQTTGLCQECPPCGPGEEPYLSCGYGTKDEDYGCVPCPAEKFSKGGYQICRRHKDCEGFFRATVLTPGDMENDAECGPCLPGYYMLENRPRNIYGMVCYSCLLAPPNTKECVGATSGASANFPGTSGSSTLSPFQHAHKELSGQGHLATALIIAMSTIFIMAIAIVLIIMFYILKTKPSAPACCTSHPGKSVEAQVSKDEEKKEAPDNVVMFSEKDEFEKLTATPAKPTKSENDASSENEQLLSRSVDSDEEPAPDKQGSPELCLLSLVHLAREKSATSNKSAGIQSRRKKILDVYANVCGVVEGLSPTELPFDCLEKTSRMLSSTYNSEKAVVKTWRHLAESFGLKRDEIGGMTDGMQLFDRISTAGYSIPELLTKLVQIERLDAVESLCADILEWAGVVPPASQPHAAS
Described as above.

The target of assay [7] is IL6R expressed on cells (human) (UniProt P08887). The assay is described as above.
The target of assay [8] is T5, CNTN1 extracellular domain (human) (UniProt Q12860).
T5 sequence (looked up): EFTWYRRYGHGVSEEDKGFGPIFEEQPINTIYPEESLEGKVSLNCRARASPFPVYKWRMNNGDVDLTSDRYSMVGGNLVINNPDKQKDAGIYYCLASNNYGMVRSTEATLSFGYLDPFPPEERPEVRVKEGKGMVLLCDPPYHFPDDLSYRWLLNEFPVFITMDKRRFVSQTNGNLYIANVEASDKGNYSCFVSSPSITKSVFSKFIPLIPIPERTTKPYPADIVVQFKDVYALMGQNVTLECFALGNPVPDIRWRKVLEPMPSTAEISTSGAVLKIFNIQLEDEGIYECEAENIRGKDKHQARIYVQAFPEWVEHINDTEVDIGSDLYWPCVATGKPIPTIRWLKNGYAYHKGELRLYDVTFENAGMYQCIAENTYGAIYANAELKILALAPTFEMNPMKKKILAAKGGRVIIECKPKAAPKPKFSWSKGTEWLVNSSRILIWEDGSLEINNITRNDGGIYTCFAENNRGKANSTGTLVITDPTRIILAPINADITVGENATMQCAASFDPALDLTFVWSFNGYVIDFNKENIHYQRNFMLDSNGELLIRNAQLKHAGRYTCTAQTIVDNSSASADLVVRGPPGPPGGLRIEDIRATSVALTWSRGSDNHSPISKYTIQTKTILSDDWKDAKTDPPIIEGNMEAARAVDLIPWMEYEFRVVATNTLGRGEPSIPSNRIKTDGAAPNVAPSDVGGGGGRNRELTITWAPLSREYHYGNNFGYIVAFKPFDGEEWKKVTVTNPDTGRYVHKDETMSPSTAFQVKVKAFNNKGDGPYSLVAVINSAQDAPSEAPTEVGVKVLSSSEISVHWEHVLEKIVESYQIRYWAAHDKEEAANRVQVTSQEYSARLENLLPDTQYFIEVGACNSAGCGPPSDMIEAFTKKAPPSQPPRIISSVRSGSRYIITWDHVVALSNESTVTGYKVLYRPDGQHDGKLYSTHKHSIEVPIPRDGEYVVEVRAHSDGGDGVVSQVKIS
As to the kind of experiment: SPR; CNTN1 ECD-Fc immobilized on CM5, analyte at 250 nM (FIG. 9I).

The target of assay [9] is LILRB1 expressed on cells (human) (UniProt Q8NHL6). As to the kind of experiment: co-immunoprecipitation, LILRB1-FLAG with IL6R-HA co-expressed in cells.
Assay [10] has as its target T6, VSIG10L full-length (co-IP) (human) (UniProt Q86VR7).
T6 sequence (looked up): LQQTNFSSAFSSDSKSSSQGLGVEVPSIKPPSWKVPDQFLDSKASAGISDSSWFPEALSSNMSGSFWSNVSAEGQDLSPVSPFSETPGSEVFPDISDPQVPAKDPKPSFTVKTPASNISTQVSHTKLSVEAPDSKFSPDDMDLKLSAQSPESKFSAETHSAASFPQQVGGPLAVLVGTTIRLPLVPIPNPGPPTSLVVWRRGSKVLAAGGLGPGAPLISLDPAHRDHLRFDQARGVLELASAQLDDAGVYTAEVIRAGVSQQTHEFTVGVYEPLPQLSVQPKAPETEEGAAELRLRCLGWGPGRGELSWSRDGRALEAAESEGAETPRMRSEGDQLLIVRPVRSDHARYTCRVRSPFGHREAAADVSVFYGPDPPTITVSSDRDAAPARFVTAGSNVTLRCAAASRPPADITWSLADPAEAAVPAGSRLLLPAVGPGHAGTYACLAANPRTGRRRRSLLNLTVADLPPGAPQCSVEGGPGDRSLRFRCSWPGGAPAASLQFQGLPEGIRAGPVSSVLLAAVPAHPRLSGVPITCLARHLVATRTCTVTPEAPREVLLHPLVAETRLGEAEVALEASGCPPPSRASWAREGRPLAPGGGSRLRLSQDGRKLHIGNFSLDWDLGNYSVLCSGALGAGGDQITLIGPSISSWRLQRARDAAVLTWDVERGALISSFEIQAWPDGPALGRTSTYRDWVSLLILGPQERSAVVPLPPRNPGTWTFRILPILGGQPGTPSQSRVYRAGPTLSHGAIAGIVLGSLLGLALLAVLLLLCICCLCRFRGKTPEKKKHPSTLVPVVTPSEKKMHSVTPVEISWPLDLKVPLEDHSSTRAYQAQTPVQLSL
As to the kind of experiment: co-immunoprecipitation, VSIG10L-FLAG with AXL-HA co-expressed in cells.

Assay [11] deals with LRRC4B expressed on cells (human) (UniProt Q9NT99). Nature of the assay: co-immunoprecipitation, LRRC4B-FLAG with BTN3A1-HA co-expressed in cells (FIG. 12F).

No constants are given. Whether binding was seen depends on the method and setting. For some assays here: Binding seen in cells or lysates may run through a third protein. Some binding calls cover weakened binding; strength is not graded here. For some assays here: Tags and fused reporters may be left off the sequences shown.

As for “BTN3A3 full-length (co-IP) (from UniProt O00478 30-584) (receptor)”, the binding entry in assay [1] is on record as “binds”.

For “TGOLN2-FLAG (from UniProt O43493) (receptor)”, the binding entry in assay [2] is “binds”. As to “IGSF5-FLAG (from UniProt Q9NSI5) (receptor)”, the binding result with CD300A-HA (human) and with CD300LF-HA (human) was “binds” each time. Consider “BTN3A2 full-length (co-IP) (from UniProt P78410 30-334) (receptor)”, for which the binding result in assay [3] is listed as “binds”. For “IL1RL1 expressed on cells (from UniProt Q01638 19-556) (receptor)”, the binding entry in assay [4] was “binds”.

As for “LILRB4 expressed on cells (from UniProt Q8NHJ6 22-448) (receptor)”, the binding entry in assay [5] was “binds”.

As to “LILRB1 expressed on cells (from UniProt Q8NHL6 24-650) (receptor)”, the binding result in assay [6] and in assay [7] was “binds” each time. Turning to “ST14-FLAG (from UniProt Q9Y5Y6) (receptor)”, in assay [2], the binding entry is “binds”. On to “NRCAM (recombinant) (from UniProt Q92823 25-1167) (receptor)”, for which the binding entry in assay [8] was “binds”. Consider “IL6R expressed on cells (from UniProt P08887 20-468) (receptor)”, for which the binding entry in [9] was “binds”. In the case of “AXL full-length (co-IP) (from UniProt P30530 26-894) (receptor)”, the binding entry in assay [10] is listed as “binds”.

For the substance “BTN3A1 full-length (co-IP) (from UniProt O00481 30-513) (receptor)”, the binding result in assay [11] is listed as “binds”.
